{"source": "paper PMC7150977", "about": "“Regional Intestinal Drug Permeability and Effects of Permeation Enhancers in Rat” (Pharmaceutics, 2020)", "key": {"[1]": {"system": "jejunum", "assay": "Rat single-pass intestinal perfusion (SPIP), jejunal lumen-to-blood Peff from plasma appearance", "assay_type": "in vivo", "details": "100 µM, mean ±SD, n = 6"}, "[2]": {"system": "colon", "details": "male, Han Wistar, rat, in vivo, 60 min, 100 µM"}, "[3]": {"set-up": "method as in PMID 9836611", "details": "cited from earlier work"}}, "note": "Read-outs that look alike come from different tables or passages of the source.", "data": [{"compound": "CC(C)NCC(O)COc1ccc(CC(N)=O)cc1", "note": "(stereo not drawn) [Atenolol, atenolol]", "values": [{"measurement": "Plasma Appearance Peff", "setting": "[1]; Jejunum pH 6.5, control solution", "value": "0.022 ± 0.01 ×10^–4 cm/s"}, {"measurement": "Plasma Appearance Peff", "setting": "[1]; Jejunum pH 7.4, control solution", "value": "0.016 ± 0.005 ×10^–4 cm/s"}, {"measurement": "Plasma Appearance Peff", "setting": "[2]; pH 6.5", "value": "0.015 ± 0.007 ×10^–4 cm/s"}, {"measurement": "Plasma Appearance Peff", "setting": "[2]; pH 7.4", "value": "0.011 ± 0.005 ×10^–4 cm/s"}, {"measurement": "HBA (hydrogen bond acceptor)", "setting": "[3]", "value": "4/4"}, {"measurement": "HBD (hydrogen bond donor)", "setting": "[3]", "value": "4/4"}]}]}
